Measured values: the supplement of paper PMC10331698
± gives the standard deviation of the averaged measurements. Small differences around the control level are noise.

Assays:
Test in all cases: level (log10 ratio to DMSO vehicle control); higher = higher biomarker level / cell amount than vehicle control
[1] = compound: O=S(=O)(O)C(F)(F)C(F)(F)C(F)(F)C(F)(F)C(F)(F)C(F)(F)C(F)(F)C(F)(F)F [Potassium perfluorooctanesulfonate]; conditions: 2200 nM; in DMSO
Method: (§1)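 BioMAP Diversity Plus panel of 12 human primary cell co-culture systems (3C, 4H, LPS, SAg, BT, BF4T, BE3C, CASM3C, HDF3CGF, KF3CT, MyoF, Mphg). Compounds were added 1 h before stimulation and left for 24 h (MyoF 48 h; BT 72 h for soluble read-outs or 6 d for IgG). Biomarkers were read by ELISA, cytotoxicity by SRB, PBMC viability and proliferation by Alamar Blue. Each well value was divided by the mean of 8 DMSO control wells on the same plate and log10 transformed; duplicate blinded samples were tested at 4 concentrations.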

[2] = compound: NS(=O)(=O)C(F)(F)C(F)(F)C(F)(F)C(F)(F)C(F)(F)C(F)(F)C(F)(F)C(F)(F)F [Perfluorooctanesulfonamide]; conditions: in DMSO
Method: as §1

[3] = compound: C=C(C)C(=O)OCC(F)(F)C(F)(F)C(F)(F)C(F)(F)C(F)(F)C(F)(F)C(F)(F)F; conditions: in DMSO
Method: as §1

[4] = compound: COC(=O)C(F)(F)C(F)(F)OC(F)(C(F)(F)F)C(F)(F)OC(F)=C(F)F [Methyl perfluoro(3-(1-ethenyloxypropan-2-yloxy)propanoate)]; conditions: in DMSO
Method: as §1

Pentafluoropropionamide = compound: NC(=O)C(F)(F)C(F)(F)F [Pentafluoropropionamide]; conditions: 2200 nM; in DMSO
Method: as §1

Heptafluorobutyl iodide = compound: FC(F)(F)C(F)(F)C(F)(F)CI [Heptafluorobutyl iodide]; conditions: 2200 nM; in DMSO
Method: as §1

[5] = compound: O=S(=O)(OCC(F)(F)F)C(F)(F)C(F)(F)C(F)(F)C(F)(F)F [2,2,2-Trifluoroethyl perfluorobutanesulfonate]; conditions: 2200 nM; in DMSO
Method: as §1

[6] = compound: C=CC(=O)OCC(F)(F)C(F)(F)C(F)(F)C(F)(F)C(F)(F)C(F)(F)C(F)(F)F [1H,1H-Perfluorooctyl acrylate]; conditions: 2200 nM; in DMSO
Method: as §1

[7] = compound: NC(=O)C(F)(F)C(F)(F)C(F)(F)C(F)F; conditions: in DMSO
Method: as §1

[8] = compound: O=C(O)C(F)(F)C(F)(F)C(F)F [4H-Perfluorobutanoic acid]; conditions: in DMSO
Method: as §1

[9] = compound: O=S(=O)(F)C(F)(F)C(F)(F)C(F)(F)C(F)(F)C(F)(F)C(F)(F)C(F)(F)C(F)(F)F [Perfluorooctanesulfonyl fluoride]; conditions: 2200 nM; in DMSO
Method: as §1

[10] = compound: O=S(=O)(O)C(F)(F)C(F)(F)C(F)(F)C(F)(F)C(F)(F)C(F)(F)C(F)(F)C(F)(F)F [Perfluorooctanesulfonic acid]; conditions: 2200 nM; in DMSO
Method: as §1

[11] = compound: C=CC(F)(F)C(F)(F)C(F)(F)C(F)(F)C(F)(F)C(F)(F)C(F)(F)C(F)(F)C=C [1,8-Divinylperfluorooctane]; conditions: in DMSO
Method: as §1

[12] = compound: OCC(F)(F)C(F)(F)C(F)(F)C(F)(F)C(F)(F)C(F)F [1H,1H,7H-Dodecafluoro-1-heptanol]; conditions: 2200 nM; in DMSO
Method: as §1

[13] = compound: CO[Si](C)(CCC(F)(F)C(F)(F)C(F)(F)C(F)(F)C(F)(F)C(F)(F)F)OC [Dimethoxymethyl((perfluorohexyl)ethyl)silane]; conditions: in DMSO
Method: as §1

[14] = compound: FC(F)(F)C(F)(F)C(F)(F)CC1CO1 [1H,1H-Heptafluorobutyl epoxide]; conditions: 2200 nM; in DMSO
Method: as §1

[15] = compound: OCCCCC(F)(F)C(F)(F)C(F)(F)C(F)(F)F [4:4 Fluorotelomer alcohol]; conditions: 2200 nM; in DMSO
Method: as §1

[16] = compound: O=P(O)(O)CCC(F)(F)C(F)(F)C(F)(F)C(F)(F)C(F)(F)C(F)(F)F [2-(Perfluorohexyl)ethylphosphonic acid]; conditions: 2200 nM; in DMSO
Method: as §1

Test System	level (log10) [1]	level (log10) ([2]; 2200 nM)	level (log10) ([2]; 6700 nM)	level (log10) ([2]; 20000 nM)	level (log10) ([3]; 740 nM)	level (log10) ([3]; 2200 nM)	level (log10) ([4]; 740 nM)	level (log10) ([4]; 2200 nM)	level (log10) (Pentafluoropropionamide)	level (log10) (Heptafluorobutyl iodide)	level (log10) [5]	level (log10) [6]	level (log10) ([7]; 2200 nM)	level (log10) ([7]; 6700 nM)	level (log10) ([7]; 20000 nM)	level (log10) ([7]; 60000 nM)	level (log10) ([8]; 2200 nM)	level (log10) ([8]; 6700 nM)	level (log10) ([8]; 20000 nM)	level (log10) ([8]; 60000 nM)	level (log10) [9]	level (log10) [10]	level (log10) ([11]; 740 nM)	level (log10) ([11]; 2200 nM)	level (log10) [12]	level (log10) ([13]; 740 nM)	level (log10) ([13]; 2200 nM)	level (log10) [14]	level (log10) [15]	level (log10) [16]
3C:HLA-DR	0.0275 ± 0.026	0.002 ± 0.0057	-0.0115 ± 0.043	-0.118 ± 0.082	-0.008 ± 0.011	-0.018 ± 0.013	-0.003 ± 0.038	-0.007 ± 0.028	-0.0095 ± 0.0021	-0.0145 ± 0.0021	-0.0065 ± 0.0035	0.0075 ± 0.028	-0.006 ± 0.04	-0.006 ± 0.02	-0.002 ± 0.016	-0.005 ± 0.014	-0.0145 ± 0.0035	-0.003 ± 0.0057	-0.013 ± 0.011	0.011 ± 0.014	0.0065 ± 0.021	0.01 ± 0.0028	0.0035 ± 0.0021	-0.008 ± 0.025	0.007 ± 0.0057	-0.007 ± 0.024	0.022 ± 0.0085	0.0055 ± 0.025	0.022 ± 0.041	0.0005 ± 0.025
MyoF:Decorin	0.035 ± 0.055	0.0125 ± 0.0092	0.0265 ± 0.053	0.031 ± 0.037	0.01 ± 0.013	0.0025 ± 0.016	0.035 ± 0.0014	0.0325 ± 0.037	0.02 ± 0.035	-0.005 ± 0.0085	0.049 ± 0.059	0.0015 ± 0.018	-0.0265 ± 0.012	0.012 ± 0.0085	-0.0035 ± 0.03	-0.009 ± 0.0085	-0.0095 ± 0.071	-0.005 ± 0.048	0.003 ± 0.064	0.0655 ± 0.088	-0.0115 ± 0.018	0.0255 ± 0.042	0.0055 ± 0.046	-0.0055 ± 0.015	-0.017 ± 0.016	0.008 ± 0.018	0.003 ± 0.0042	-0.007 ± 0.0099	0.015 ± 0.028	-0.002 ± 0.02
lMphg:CXCL8/IL-8	0.018 ± 0.068	0.0195 ± 0.08	0.004 ± 0.0042	0.124 ± 0.019	-0.001 ± 0.0042	-0.0305 ± 0.033	0.045 ± 0.013	0.04 ± 0.017	0.0055 ± 0.0092	0.015 ± 0.016	0.0285 ± 0.0035	0.0335 ± 0.0035	0.0015 ± 0.074	-0.0235 ± 0.0078	-0.0225 ± 0.028	0.0185 ± 0.047	0.014 ± 0.031	0.024 ± 0.0028	0.0145 ± 0.0021	0.0315 ± 0.011	0.0205 ± 0.036	0.011 ± 0.075	0.021 ± 0.044	0.0065 ± 0.0021	-0.0085 ± 0.073	0.025 ± 0.035	0.0055 ± 0.015	-0.002 ± 0.062	-0.0085 ± 0.083	0.01 ± 0.075
